Article PMC4404914, “Adenoviral L4 33K forms ring-like oligomers and stimulates ATPase activity of IVa2: implications in viral genome packaging” (Frontiers in Microbiology, 2015)
These are yes or no findings as the source states them, for the method shown. Some results given as binding are weak or reduced against the parent protein; the word gives no strength. For some of these results: Sequences can lack the tags named with a protein.

Key:
[1] = molecular target: IVa2 protein of human adenovirus serotype 5 (HAdV5), expressed from the virus (human adenovirus serotype 5 (HAdV5)) (UniProt P03271); assay: non-reducing SDS-PAGE with Western blot; lysates of HAdV5-infected cells, 36 h post-infection, 20 ug; Laemmli buffer with 2% SDS, with (boiled 5 min) or without 5% beta-mercaptoethanol; blots with anti-IVa2 or anti-33K
[2] = molecular target: IVa2 protein of human adenovirus serotype 5 (HAdV5), expressed from the virus (human adenovirus serotype 5 (HAdV5)) (UniProt P03271); assay: condition: only reducing conditions (5% beta-mercaptoethanol, boiled); non-reducing SDS-PAGE with Western blot; lysates of HAdV5-infected cells, 36 h post-infection, 20 ug; Laemmli buffer with 2% SDS, with (boiled 5 min) or without 5% beta-mercaptoethanol; blots with anti-IVa2 or anti-33K
[3] = molecular target: 6His-tagged HAdV5 IVa2, purified from E. coli (human adenovirus serotype 5 (HAdV5)) (UniProt P03271); assay: condition: only reducing conditions (5% beta-mercaptoethanol, boiled); non-reducing SDS-PAGE with Coomassie staining or Western blot; purified bacterial IVa2 or 33K; Laemmli buffer with 2% SDS, with (boiled 5 min) or without 5% beta-mercaptoethanol; both purified
[4] = molecular target: HAdV5 IVa2 expressed from pcDNA-IVa2 in 293 cells (human adenovirus serotype 5 (HAdV5)) (UniProt P03271); assay: non-reducing SDS-PAGE with Western blot; lysates of transiently transfected cells, 36 h post-transfection (pcDNA-IVa2 in 293 or 293-33K; pcDNA-33K in 293 or 293-IVa2); with or without beta-mercaptoethanol; blots with anti-IVa2 or anti-33K

B1: IVa2 protein of human adenovirus serotype 5 (HAdV5), expressed from the virus (protein, UniProt P03271 1-449)
chain: METRGRRPAALQHQQDQPQAHPGQRAARSAPLHRDPDYADEDPAPVERHDPGPSGRAPTTAVQRKPPQPAKRGDMLDRDAVEQVTELWDRLELLGQTLKSMPTADGLKPLKNFASLQELLSLGGERLLADLVRENMRVRDMLNEVAPLLRDDGSCSSLNYQLHPVIGVIYGPTGCGKSQLLRNLLSSQLISPTPETVFFIAPQVDMIPPSELKAWEMQICEGNYAPGPDGTIIPQSGTLRPRFVKMAYDDLILEHNYDVSDPRNIFAQAAARGPIAIIMDECMENLGGHKGVSKFFHAFPSKLHDKFPKCTGYTVLVVLHNMNPRRDMAGNIANLKIQSKMHLISPRMHPSQLNRFVNTYTKGLPLAISLLLKDIFRHHAQRSCYDWIIYNTTPQHEALQWCYLHPRDGLMPMYLNIQSHLYHVLEKIHRTLNDRDRWSRAYRARKTPK
binding [1]: binds
binding [2]: no binding

B2: 6His-tagged HAdV5 IVa2, purified from E. coli (natural protein)
chain: METRGRRPAALQHQQDQPQAHPGQRAARSAPLHRDPDYADEDPAPVERHDPGPSGRAPTTAVQRKPPQPAKRGDMLDRDAVEQVTELWDRLELLGQTLKSMPTADGLKPLKNFASLQELLSLGGERLLADLVRENMRVRDMLNEVAPLLRDDGSCSSLNYQLHPVIGVIYGPTGCGKSQLLRNLLSSQLISPTPETVFFIAPQVDMIPPSELKAWEMQICEGNYAPGPDGTIIPQSGTLRPRFVKMAYDDLILEHNYDVSDPRNIFAQAAARGPIAIIMDECMENLGGHKGVSKFFHAFPSKLHDKFPKCTGYTVLVVLHNMNPRRDMAGNIANLKIQSKMHLISPRMHPSQLNRFVNTYTKGLPLAISLLLKDIFRHHAQRSCYDWIIYNTTPQHEALQWCYLHPRDGLMPMYLNIQSHLYHVLEKIHRTLNDRDRWSRAYRARKTPK
notes: IVa2 of human adenovirus serotype 5; synthetic gene cassette, codon-optimized for bacteria, in pET28a (pET28-IVa2); the results speak of the full-length IVa2 band; A faster migrating band, perhaps a degradation product of IVa2, was also in the preparation; also called purified IVa2; source: E. coli BL21 (DE3) pLysS, purified (HiTrap NiNTA, HiPrep 16/10 SP-XL cation exchange)
binding [3]: no binding

B3: HAdV5 IVa2 expressed from pcDNA-IVa2 in 293 cells (protein, UniProt P03271 1-449)
chain: METRGRRPAALQHQQDQPQAHPGQRAARSAPLHRDPDYADEDPAPVERHDPGPSGRAPTTAVQRKPPQPAKRGDMLDRDAVEQVTELWDRLELLGQTLKSMPTADGLKPLKNFASLQELLSLGGERLLADLVRENMRVRDMLNEVAPLLRDDGSCSSLNYQLHPVIGVIYGPTGCGKSQLLRNLLSSQLISPTPETVFFIAPQVDMIPPSELKAWEMQICEGNYAPGPDGTIIPQSGTLRPRFVKMAYDDLILEHNYDVSDPRNIFAQAAARGPIAIIMDECMENLGGHKGVSKFFHAFPSKLHDKFPKCTGYTVLVVLHNMNPRRDMAGNIANLKIQSKMHLISPRMHPSQLNRFVNTYTKGLPLAISLLLKDIFRHHAQRSCYDWIIYNTTPQHEALQWCYLHPRDGLMPMYLNIQSHLYHVLEKIHRTLNDRDRWSRAYRARKTPK
binding [4]: binds
